The list shows only some results of the screen, not a fair sample: it gathers tests that were run many times, whatever their T/C, doses with no T/C, and many T/C values between a quarter and a half above the control. Other doses and runs of a compound stand elsewhere. T/C is the treated group as % of the vehicle group. Some doses have a count of surviving animals in place of a T/C: the source files T/C as zero there, which appears to mark a toxic dose or a test without result, not a measured value. Some doses without a T/C left all or most animals alive at the check, yet need not have been tolerated: the source hardly ever lists a survival T/C far under the control, and the zero likely stands for such cases as well. Counts of survivors are from the toxicity check (mostly the fifth day) where no day follows; animals may have died later. Schedules are NCI's codes, read here as Q, the interval in days (D) or hours (H), X, the number of doses. Some schedule codes hold Z or #, which are not explained here. For survival time, the PubChem record calls one and a half times the control and up active, and a quarter to a half above the control has no call in these data; cut-offs in other NCI protocols can differ. Some T/C values carry the count of animals alive at the toxicity check (mostly the fifth day); where none is given, no animal had died by that day.
System: BDF1 mice, B16 melanoma s.c., survival/tumor T/C
Experiment: NCI In Vivo Anticancer Drug Screen. Data for tumor model B16 Melanoma (subcutaneous) in B6D2F1 (BDF1) mice
Conditions: T/C endpoint: median survival time, higher T/C = longer survival
Protocol: The antitumor activity of compounds was measured in mice bearing transplantable tumors. Survival or tumor size were measured and the results are expressed as the measurement made in the treated group (T) divided by the measurement made in the vehicle treated control group (C). The tumor model used in this assay is B16 Melanoma (subcutaneous) in B6D2F1 (BDF1) mice

Compound: NC(=O)c1ccc[n+](Cc2c(Cl)cccc2Cl)c1
- T/C (dose: 1.5 mg/kg/injection, schedule: Q01DX009 (ip), vehicle: saline): 125 % of control

Compound: O=NN(CCF)C(=O)NC1CCC(=O)NC1=O (stereo not drawn)
- T/C (dose: 14.4 mg/kg/injection, schedule: Q01DX007 (ip), vehicle: Klucel (hydroxypropylcellulose) (HPC)): 135 % of control [8 of 10 alive on day 55]
- survivor count (dose: 24.0 mg/kg/injection, schedule: Q01DX007 (ip), vehicle: Klucel (hydroxypropylcellulose) (HPC)): 4 of 10 on day 55

Compound: CO[C@H]1/C=C/O[C@@]2(C)Oc3c(C)c(O)c4c(O)c(c(/C=N/N5C(C)CN(Cc6ccccc6)CC5C)c(O)c4c3C2=O)NC(=O)/C(C)=C\C=C\[C@H](C)[C@H](O)[C@@H](C)[C@@H](O)[C@@H](C)[C@H](OC(C)=O)[C@@H]1C (stereo partly drawn)
- survivor count (dose: 25.0 mg/kg/injection, schedule: Q02DX Z (oral), vehicle: Klucel (hydroxypropylcellulose) (HPC)): 10 of 10
- survivor count (dose: 400.0 mg/kg/injection, schedule: Q02DX Z (oral), vehicle: Klucel (hydroxypropylcellulose) (HPC)): 10 of 10
- survivor count (dose: 800.0 mg/kg/injection, schedule: Q02DX Z (oral), vehicle: Klucel (hydroxypropylcellulose) (HPC)): 10 of 10
- survivor count (dose: 1600.0 mg/kg/injection, schedule: Q02DX Z (oral), vehicle: Klucel (hydroxypropylcellulose) (HPC)): 10 of 10

Compound: CC1=C(/C=C/C(C)=C/C=C/C(C)=C/C(=O)O)C(C)(C)CCC1
- survivor count (dose: 8.0 mg/kg/injection, schedule: Q01DX009 (ip), vehicle: saline with Tween-80): 10 of 10
- survivor count (dose: 16.0 mg/kg/injection, schedule: Q01DX009 (ip), vehicle: saline with Tween-80): 10 of 10
- survivor count (dose: 32.0 mg/kg/injection, schedule: Q01DX009 (ip), vehicle: saline with Tween-80): 10 of 10
- survivor count (dose: 64.0 mg/kg/injection, schedule: Q01DX009 (ip), vehicle: saline with Tween-80): 10 of 10
- survivor count (dose: 128.0 mg/kg/injection, schedule: Q01DX009 (ip), vehicle: saline with Tween-80): 10 of 10

Compound: CC1(C)N=C(N)N=C(N)N1c1ccc(OCCCNC(=O)Nc2cccc(S(=O)(=O)F)c2)c(Cl)c1
- T/C (dose: 25.0 mg/kg/injection, schedule: Q01DX009 (ip), vehicle: saline): 138 % of control

Reference: PubChem BioAssay AID194 (DTP/NCI, 2004)
